{"source": "PubChem BioAssay AID1159584 (Peter MacCallum Cancer Centre, 2016)", "assay": "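Knock-downs that harm CDH1-null cells more than parental MCF10A cells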 (primary screen)", "cells": "human MCF10A breast epithelial cells, parental and CDH1-null", "knock-down reagent": "siRNA against human genes", "measurement": "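Cell viability by CellTiter-Glo ATP luminescence, each line scaled to the mean of mock wells across plates, then CDH1-null over parental ratio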", "direction": "CDH1-null / parental viability ratio: higher = CDH1-null cells survive relatively better than parental", "note": "The deposit covers about 18,000 reagents; this is a random part of them. Further read-outs or replicates are left out here. No sequences are given here. Not stated in the record: the amount of reagent, the time to read-out."}
The first 2 records as a preview:
{"target": "COMMD7 (COMM domain containing 7)", "CDH1-null / parental viability ratio": 1.44}
{"target": "GOLGA8G (golgin A8 family member G)", "CDH1-null / parental viability ratio": 1.03}

Results, from the first entry:
{"target": "COMMD7 (COMM domain containing 7)", "CDH1-null / parental viability ratio": 1.44}
{"target": "GOLGA8G (golgin A8 family member G)", "CDH1-null / parental viability ratio": 1.03}
{"target": "COPS2 (COP9 signalosome subunit 2)", "CDH1-null / parental viability ratio": 0.94}
{"target": "GRIN2B (glutamate ionotropic receptor NMDA type subunit 2B)", "CDH1-null / parental viability ratio": 1.17}
{"target": "KCTD6 (potassium channel tetramerization domain containing 6)", "CDH1-null / parental viability ratio": 1.2}
{"target": "TNK2 (tyrosine kinase non receptor 2)", "CDH1-null / parental viability ratio": 0.88}
{"target": "RPL13A (ribosomal protein L13a)", "CDH1-null / parental viability ratio": 1.21}
{"target": "GON4L (gon-4 like)", "CDH1-null / parental viability ratio": 0.88}
{"target": "TMEM267 (transmembrane protein 267)", "CDH1-null / parental viability ratio": 1.06}
{"target": "ACSBG2 (acyl-CoA synthetase bubblegum family member 2)", "CDH1-null / parental viability ratio": 0.97}
{"target": "REG4 (regenerating family member 4)", "CDH1-null / parental viability ratio": 0.94}
{"target": "WRAP73 (WD repeat containing, antisense to TP73)", "CDH1-null / parental viability ratio": 1.13}
{"target": "ZC3H15 (zinc finger CCCH-type containing 15)", "CDH1-null / parental viability ratio": 0.76}
{"target": "SSX4B (SSX family member 4B)", "CDH1-null / parental viability ratio": 1.04}
